The target of this assay is StAR Related Lipid Transfer Domain Containing 10 (rat (endogenous in INS1 (832/13))). Description: affinity purification with mass spectrometry; endogenous STARD10 immunoprecipitated from 1 mg INS1 (832/13) lysate with anti-PCTP-L (STARD10) antibody on Dynabeads Protein A, overnight at 4 °C; lysis buffer 20 mM HEPES, 150 mM NaCl, 1% Igepal; compared with rabbit IgG isotype control; on-bead trypsin digest, TMT labelling, nano-LC MS/MS.

These are yes or no findings as the source states them, for the method shown. In cells and extracts the contact can be indirect. These calls come from enrichment with a bait or labelling near it, and not all partners need be listed.

B1: DEAD (Asp-Glu-Ala-Asp) box polypeptide 5 (protein, UniProt Q6AYI1 1-615)
chain: MSSYSSDRDRGRDRGFGAPRFGGSRTGPLSGKKFGNPGEKLVKKKWNLDELPKFEKNFYQEHPDLARRTAQEVDTYRRSKEITVRGHNCPKPVLNFYEANFPANVMDVIARQNFTEPTAIQAQGWPVALSGLDMVGVAQTGSGKTLSYLLPAIVHINHQPFLERGDGPICLVLAPTRELAQQVQQVAAEYCRACRLKSTCIYGGAPKGPQIRDLERGVEICIATPGRLIDFLECGKTNLRRTTYLVLDEADRMLDMGFEPQIRKIVDQIRPDRQTLMWSATWPKEVRQLAEDFLKDYIHINIGALELSANHNILQIVDVCHDVEKDEKLIRLMEEIMSEKENKTIVFVETKRRCDELTRKMRRDGWPAMGIHGDKSQQERDWVLNEFKHGKAPILIATDVASRGLDVEDVKFVINYDYPNSSEDYIHRIGRTARSTKTGTAYTFFTPNNIKQVSDLISVLREANQAINPKLLQLVEDRGSGRSRGRGGMKDDRRDRYSAGKRGGFNTFRDRENYDRGYSSLLKRDFGAKTQNGVYSAANYTNGSFGSNFVSAGIQTSFRTGNPTGTYQNGYDSTQQYGSNVANMHNGMNQQAYAYPATAAAAPMIGYPMPTGYSQ
For the molecule B1, the binding entry is “binds”.

B2: U4/U6.U5 tri-snRNP-associated protein 1 (protein, UniProt Q5XIW8 1-806)
chain: MGSSKKHRGEKEAAGTTAAAGTGGTTEQPPRHREHKKHKHRSSGGGSSGGERRKRSRERGAERGSGRRGAEAEARSGAHGRERSQAEPSERRVKREKRDEGYEAAASSKASSGDASSLSIEETNKLRAKLGLKPLEVNAVKKEAGTKEEPVAADVINPMALRQREELREKLAAAKEKRLLNQKLGKIKTLGEDDPWLDDTAAWIERSRQLQKEKDLAEKRAKLLEEMDQEFGVSTLVEEEFEQRRQDLYSARDLQGLTVEHAIDSFREGETVVLTLKDKGVLQEGEDVLVNVNMVDKERADKNVELRKKKPDYLPYAEDESVDDLAQQKPRSILAKYDEELEGERPHSFRLEQGGMADGLRERELEEIRTKLRLQAQSLNTVGPRLASEYLSPEEMVTFKKTKRRVKKIRKKEKEVIMRADDLLPLGEDQTQDGDFGSRLRGRGRRRVPEVEEEALEDEEKDPVAQPPPSDDTRVENMDISDEEDGGALPSGPPELEEDEAELELQKQLEKGRRLRQLQQLQQLRDSGEKVLEIVKKLESRQRGWEEEEDPERKGTIVFNATSEFCRTLGEIPTYGLAGNREEQEELMDFERDEERSANGGSESDGEENIGWSTVNLDEEKQHQDFSASSTTILDEEPIVNRGLAAALLLCQNKGLLETTVQKVARVKAPNKSLPSAVYCIEDKMAIDDKYSRREEYRGFTQDFKEKDGYKPDVKIEYVDETGRKLTPKEAFRQLSHRFHGKGSGKMKTERRMKKLDEEALLKKMSSSDTPLGTVALLQEKQKAQKTPYIVLSGSGKSMNANTITK
B2: the binding entry was “binds”.

The record behind these values is article PMC7322359.
